Test results: paper PMC11789580
Results are given in words; binding and its absence hold for the method and conditions named. In cells and extracts the contact can be indirect. Some entries that bind do so weakly or less than the wild type. Tags and fused reporters may be left off the sequences shown.

T1: RPOTp-nYFP (Arabidopsis) (UniProt O24600)
T1 sequence: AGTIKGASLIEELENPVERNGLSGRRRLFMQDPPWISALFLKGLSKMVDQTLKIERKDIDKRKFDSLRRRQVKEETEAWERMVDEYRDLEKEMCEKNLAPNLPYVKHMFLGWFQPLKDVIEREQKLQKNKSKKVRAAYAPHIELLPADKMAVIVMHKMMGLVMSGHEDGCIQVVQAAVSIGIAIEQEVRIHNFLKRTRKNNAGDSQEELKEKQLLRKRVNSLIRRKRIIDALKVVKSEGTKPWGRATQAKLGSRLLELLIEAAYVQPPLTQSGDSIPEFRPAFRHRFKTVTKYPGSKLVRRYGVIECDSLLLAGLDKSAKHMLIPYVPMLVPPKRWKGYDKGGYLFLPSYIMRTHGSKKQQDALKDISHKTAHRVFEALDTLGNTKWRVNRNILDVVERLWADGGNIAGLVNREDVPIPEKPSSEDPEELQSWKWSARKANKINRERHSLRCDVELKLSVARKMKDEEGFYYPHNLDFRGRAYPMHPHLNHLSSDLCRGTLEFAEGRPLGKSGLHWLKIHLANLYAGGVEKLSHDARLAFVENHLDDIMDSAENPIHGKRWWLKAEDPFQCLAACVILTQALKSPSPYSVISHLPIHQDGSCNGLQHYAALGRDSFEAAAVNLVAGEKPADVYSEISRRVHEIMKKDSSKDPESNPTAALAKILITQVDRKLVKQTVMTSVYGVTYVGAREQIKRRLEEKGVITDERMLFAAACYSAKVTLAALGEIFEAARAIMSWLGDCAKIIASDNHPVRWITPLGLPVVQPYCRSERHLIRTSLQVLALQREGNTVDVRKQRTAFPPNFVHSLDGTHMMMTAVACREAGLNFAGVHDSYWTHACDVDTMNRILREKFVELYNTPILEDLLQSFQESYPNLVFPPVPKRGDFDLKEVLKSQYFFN

T2: RPOTp-nLUC (Arabidopsis) (UniProt O24600)
T2 sequence: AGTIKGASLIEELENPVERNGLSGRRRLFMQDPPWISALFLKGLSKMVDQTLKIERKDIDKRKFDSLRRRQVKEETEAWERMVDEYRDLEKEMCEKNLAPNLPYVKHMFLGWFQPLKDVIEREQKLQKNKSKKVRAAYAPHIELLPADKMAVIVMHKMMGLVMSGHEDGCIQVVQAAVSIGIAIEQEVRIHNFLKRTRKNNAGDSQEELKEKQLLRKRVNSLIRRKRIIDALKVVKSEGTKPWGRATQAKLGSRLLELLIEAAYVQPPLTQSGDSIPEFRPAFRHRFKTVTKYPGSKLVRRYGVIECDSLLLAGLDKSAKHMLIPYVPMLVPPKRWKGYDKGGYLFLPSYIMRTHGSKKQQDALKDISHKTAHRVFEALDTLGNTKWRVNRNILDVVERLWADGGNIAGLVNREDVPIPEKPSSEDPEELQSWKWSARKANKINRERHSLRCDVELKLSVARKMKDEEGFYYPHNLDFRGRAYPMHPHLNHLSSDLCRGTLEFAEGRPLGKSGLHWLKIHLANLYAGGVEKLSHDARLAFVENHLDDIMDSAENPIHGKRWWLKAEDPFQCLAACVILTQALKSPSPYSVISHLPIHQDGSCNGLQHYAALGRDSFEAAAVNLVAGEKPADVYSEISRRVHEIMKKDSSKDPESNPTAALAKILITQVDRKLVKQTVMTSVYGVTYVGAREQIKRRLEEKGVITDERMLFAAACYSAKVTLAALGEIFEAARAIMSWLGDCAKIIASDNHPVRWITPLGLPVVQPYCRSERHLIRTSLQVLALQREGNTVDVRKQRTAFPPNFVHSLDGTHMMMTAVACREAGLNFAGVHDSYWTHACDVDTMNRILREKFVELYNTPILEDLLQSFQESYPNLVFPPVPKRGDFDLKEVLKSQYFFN

T3: RPOTp-FLAG (Arabidopsis) (UniProt O24600)
T3 sequence: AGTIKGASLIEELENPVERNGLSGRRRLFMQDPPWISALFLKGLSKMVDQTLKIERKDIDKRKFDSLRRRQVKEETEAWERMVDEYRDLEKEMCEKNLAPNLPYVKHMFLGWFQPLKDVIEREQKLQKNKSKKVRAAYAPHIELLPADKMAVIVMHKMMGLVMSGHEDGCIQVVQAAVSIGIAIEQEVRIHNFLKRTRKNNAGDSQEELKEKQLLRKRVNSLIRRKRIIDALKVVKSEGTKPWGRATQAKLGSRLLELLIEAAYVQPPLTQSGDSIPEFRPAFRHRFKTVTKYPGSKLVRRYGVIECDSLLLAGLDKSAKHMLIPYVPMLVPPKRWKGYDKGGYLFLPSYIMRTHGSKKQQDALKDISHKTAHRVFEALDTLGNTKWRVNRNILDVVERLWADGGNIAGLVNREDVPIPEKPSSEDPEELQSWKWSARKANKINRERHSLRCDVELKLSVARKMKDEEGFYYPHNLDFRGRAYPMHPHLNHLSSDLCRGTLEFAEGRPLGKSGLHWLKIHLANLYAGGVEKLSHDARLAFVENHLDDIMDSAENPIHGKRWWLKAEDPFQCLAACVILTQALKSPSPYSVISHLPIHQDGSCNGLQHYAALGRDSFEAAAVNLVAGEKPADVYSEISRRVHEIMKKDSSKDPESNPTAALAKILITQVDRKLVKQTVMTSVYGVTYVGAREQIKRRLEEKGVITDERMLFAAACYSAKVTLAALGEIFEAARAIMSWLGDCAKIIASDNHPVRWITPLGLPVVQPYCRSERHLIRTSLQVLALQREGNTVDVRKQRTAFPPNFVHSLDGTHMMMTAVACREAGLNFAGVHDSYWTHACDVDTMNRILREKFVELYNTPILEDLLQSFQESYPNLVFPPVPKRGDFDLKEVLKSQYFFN


Key:
RPOTp-nYFP (Arabidopsis) = molecular target: T1, RPOTp-nYFP (Arabidopsis); experiment: split reporter; BiFC: nYFP and cYFP fusions co-infiltrated into epidermal cells of 4-week-old Nicotiana benthamiana leaves, 48 h at 22 °C, confocal microscopy
RPOTp-nLUC (Arabidopsis) = molecular target: T2, RPOTp-nLUC (Arabidopsis); experiment: split reporter; firefly luciferase complementation imaging (LCI): nLUC and cLUC fusions co-infiltrated into 4-week-old Nicotiana benthamiana leaves, 3 days, 1 mM D-luciferin, CCD camera
RPOTp-FLAG (Arabidopsis) = molecular target: T3, RPOTp-FLAG (Arabidopsis); experiment: co-IP; RPOTp-FLAG and HA-tagged proteins co-infiltrated into Nicotiana benthamiana leaves; lysate on anti-FLAG M2 magnetic beads 2 h at 4 °C, eluted with 3xFLAG peptide; blots with anti-FLAG and anti-HA

| binding (RPOTp-nYFP (Arabidopsis)) | binding (RPOTp-nLUC (Arabidopsis)) | Binder | also measured |
| --- | --- | --- | --- |
| binds | – | ORRM1-cYFP (protein, UniProt Q8L440 55-374) SSAISAPPSSTVLTRNSYWMVLLDKPPHWVSSKSAMVDYYVEILAKVLGNEKDAQVSIYDASFDTHFGFCCHIDEDASRQLASLPGVVSIRPEQDYSSEKKNYGIGSHKGVSLFDHGTVKHWMVRIDKPGVGIVTKAQMVDHCVQLLSKVLWNEKDAQMCLYHVSWQSDFGFCCDLDERSAVELAGVPGVLAVVPDNSFESLNKDYEGDSTQDSRDQDDSESPPVKTKKLFITGLSFYTSEKTLRAAFEGFGELVEVKIIMDKISKRSKGYAFLEYTTEEAAGTALKEMNGKIINGWMIVVDVAKTKPFRQNRSQPSFGL | – |
| – | binds | OTP84 (protein, UniProt Q7Y211 45-890) ASAVSGAPSIFISQSRSPEWWIDLLRSKVRSNLLREAVLTYVDMIVLGIKPDNYAFPALLKAVADLQDMELGKQIHAHVYKFGYGVDSVTVANTLVNLYRKCGDFGAVYKVFDRISERNQVSWNSLISSLCSFEKWEMALEAFRCMLDENVEPSSFTLVSVVTACSNLPMPEGLMMGKQVHAYGLRKGELNSFIINTLVAMYGKLGKLASSKVLLGSFGGRDLVTWNTVLSSLCQNEQLLEALEYLREMVLEGVEPDEFTISSVLPACSHLEMLRTGKELHAYALKNGSLDENSFVGSALVDMYCNCKQVLSGRRVFDGMFDRKIGLWNAMIAGYSQNEHDKEALLLFIGMEESAGLLANSTTMAGVVPACVRSGAFSRKEAIHGFVVKRGLDRDRFVQNTLMDMYSRLGKIDIAMRIFGKMEDRDLVTWNTMITGYVFSEHHEDALLLLHKMQNLERKVSKGASRVSLKPNSITLMTILPSCAALSALAKGKEIHAYAIKNNLATDVAVGSALVDMYAKCGCLQMSRKVFDQIPQKNVITWNVIIMAYGMHGNGQEAIDLLRMMMVQGVKPNEVTFISVFAACSHSGMVDEGLRIFYVMKPDYGVEPSSDHYACVVDLLGRAGRIKEAYQLMNMMPRDFNKAGAWSSLLGASRIHNNLEIGEIAAQNLIQLEPNVASHYVLLANIYSSAGLWDKATEVRRNMKEQGVRKEPGCSWIEHGDEVHKFVAGDSSHPQSEKLSGYLETLWERMRKEGYVPDTSCVLHNVEEDEKEILLCGHSEKLAIAFGILNTSPGTIIRVAKNLRVCNDCHLATKFISKIVDREIILRDVRRFHRFKNGTCSCGDYW | – |

Continued, binder first:

| Binder | binding (RPOTp-nYFP (Arabidopsis)) | binding (RPOTp-nLUC (Arabidopsis)) | also measured |
| --- | --- | --- | --- |
| ORRM1-cLUC (protein, UniProt Q8L440 55-374) SSAISAPPSSTVLTRNSYWMVLLDKPPHWVSSKSAMVDYYVEILAKVLGNEKDAQVSIYDASFDTHFGFCCHIDEDASRQLASLPGVVSIRPEQDYSSEKKNYGIGSHKGVSLFDHGTVKHWMVRIDKPGVGIVTKAQMVDHCVQLLSKVLWNEKDAQMCLYHVSWQSDFGFCCDLDERSAVELAGVPGVLAVVPDNSFESLNKDYEGDSTQDSRDQDDSESPPVKTKKLFITGLSFYTSEKTLRAAFEGFGELVEVKIIMDKISKRSKGYAFLEYTTEEAAGTALKEMNGKIINGWMIVVDVAKTKPFRQNRSQPSFGL | – | binds | – |
| ORRM1-HA (protein, UniProt Q8L440 55-374) SSAISAPPSSTVLTRNSYWMVLLDKPPHWVSSKSAMVDYYVEILAKVLGNEKDAQVSIYDASFDTHFGFCCHIDEDASRQLASLPGVVSIRPEQDYSSEKKNYGIGSHKGVSLFDHGTVKHWMVRIDKPGVGIVTKAQMVDHCVQLLSKVLWNEKDAQMCLYHVSWQSDFGFCCDLDERSAVELAGVPGVLAVVPDNSFESLNKDYEGDSTQDSRDQDDSESPPVKTKKLFITGLSFYTSEKTLRAAFEGFGELVEVKIIMDKISKRSKGYAFLEYTTEEAAGTALKEMNGKIINGWMIVVDVAKTKPFRQNRSQPSFGL | – | – | binding (RPOTp-FLAG (Arabidopsis)): binds |
| MORF8-cYFP (protein, UniProt Q9LKA5 57-395) GGLVSVKGLSTQATSSSLNDPNPNWSNRPPKETILLDGCDFEHWLVVVEPPQGEPTRDEIIDSYIKTLAQIVGSEDEARMKIYSVSTRCYYAFGALVSEDLSHKLKELSNVRWVLPDSYLDVRNKDYGGEPFIDGKAVPYDPKYHEEWIRNNARANERNRRNDRPRNNDRSRNFERRRENMAGGPPPQRPPMGGPPPPPHIGGSAPPPPHMGGSAPPPPHMGQNYGPPPPNNMGGPRHPPPYGAPPQNNMGGPRPPQNYGGTPPPNYGGAPPANNMGGAPPPNYGGGPPPQYGAVPPPQYGGAPPQNNNYQQQGSGMQQPQYQNNYPPNRDGSGNPYQG | binds | – | – |
